Assay results from the supplement of paper PMC12067093, “Discovery and optimisation of a covalent ligand for TRIM25 and its application to targeted protein ubiquitination” (Chemical Science, 2025).
Some of the results follow.

Protein sequences, listed by entry. Tags and fused reporters are not part of them. Lines headed by an entry give the natural chain unless they say otherwise; changes in a name come on top.
UniProt P54578: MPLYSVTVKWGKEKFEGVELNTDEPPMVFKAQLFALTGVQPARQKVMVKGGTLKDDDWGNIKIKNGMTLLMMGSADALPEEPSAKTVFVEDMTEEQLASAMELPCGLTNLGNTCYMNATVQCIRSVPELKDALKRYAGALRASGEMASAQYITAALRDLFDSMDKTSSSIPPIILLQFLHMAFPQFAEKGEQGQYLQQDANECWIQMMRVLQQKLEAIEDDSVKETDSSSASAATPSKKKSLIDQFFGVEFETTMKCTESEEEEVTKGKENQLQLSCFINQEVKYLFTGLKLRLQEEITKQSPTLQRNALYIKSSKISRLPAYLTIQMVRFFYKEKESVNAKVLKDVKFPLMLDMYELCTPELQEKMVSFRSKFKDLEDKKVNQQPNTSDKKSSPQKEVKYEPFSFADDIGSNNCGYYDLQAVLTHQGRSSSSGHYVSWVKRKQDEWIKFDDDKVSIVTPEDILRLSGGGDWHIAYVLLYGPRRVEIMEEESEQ
UniProt Q13107: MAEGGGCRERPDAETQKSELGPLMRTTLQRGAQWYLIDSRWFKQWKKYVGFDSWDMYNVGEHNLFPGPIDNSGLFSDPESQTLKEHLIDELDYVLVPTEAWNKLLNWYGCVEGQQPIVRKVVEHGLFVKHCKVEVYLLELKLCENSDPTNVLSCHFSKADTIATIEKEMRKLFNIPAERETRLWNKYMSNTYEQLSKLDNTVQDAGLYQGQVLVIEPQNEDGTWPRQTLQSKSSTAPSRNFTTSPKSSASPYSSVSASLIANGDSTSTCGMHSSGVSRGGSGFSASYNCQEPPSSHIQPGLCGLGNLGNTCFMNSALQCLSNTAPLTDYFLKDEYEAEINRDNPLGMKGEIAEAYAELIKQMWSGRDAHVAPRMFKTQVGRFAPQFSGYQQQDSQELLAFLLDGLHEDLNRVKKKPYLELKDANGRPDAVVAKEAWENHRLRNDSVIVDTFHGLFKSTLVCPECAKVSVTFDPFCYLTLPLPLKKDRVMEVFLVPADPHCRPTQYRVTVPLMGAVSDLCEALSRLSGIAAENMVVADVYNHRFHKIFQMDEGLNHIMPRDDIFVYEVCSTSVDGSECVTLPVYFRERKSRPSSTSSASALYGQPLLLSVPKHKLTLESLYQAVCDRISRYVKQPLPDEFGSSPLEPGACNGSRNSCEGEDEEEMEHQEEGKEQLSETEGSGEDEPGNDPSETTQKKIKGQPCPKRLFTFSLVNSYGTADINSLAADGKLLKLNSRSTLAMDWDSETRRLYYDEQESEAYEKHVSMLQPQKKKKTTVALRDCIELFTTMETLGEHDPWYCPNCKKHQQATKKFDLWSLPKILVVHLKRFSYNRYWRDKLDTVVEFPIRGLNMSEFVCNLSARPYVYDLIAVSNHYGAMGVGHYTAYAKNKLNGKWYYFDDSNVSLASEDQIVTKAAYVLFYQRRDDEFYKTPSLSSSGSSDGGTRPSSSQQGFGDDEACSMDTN
UniProt Q96K76: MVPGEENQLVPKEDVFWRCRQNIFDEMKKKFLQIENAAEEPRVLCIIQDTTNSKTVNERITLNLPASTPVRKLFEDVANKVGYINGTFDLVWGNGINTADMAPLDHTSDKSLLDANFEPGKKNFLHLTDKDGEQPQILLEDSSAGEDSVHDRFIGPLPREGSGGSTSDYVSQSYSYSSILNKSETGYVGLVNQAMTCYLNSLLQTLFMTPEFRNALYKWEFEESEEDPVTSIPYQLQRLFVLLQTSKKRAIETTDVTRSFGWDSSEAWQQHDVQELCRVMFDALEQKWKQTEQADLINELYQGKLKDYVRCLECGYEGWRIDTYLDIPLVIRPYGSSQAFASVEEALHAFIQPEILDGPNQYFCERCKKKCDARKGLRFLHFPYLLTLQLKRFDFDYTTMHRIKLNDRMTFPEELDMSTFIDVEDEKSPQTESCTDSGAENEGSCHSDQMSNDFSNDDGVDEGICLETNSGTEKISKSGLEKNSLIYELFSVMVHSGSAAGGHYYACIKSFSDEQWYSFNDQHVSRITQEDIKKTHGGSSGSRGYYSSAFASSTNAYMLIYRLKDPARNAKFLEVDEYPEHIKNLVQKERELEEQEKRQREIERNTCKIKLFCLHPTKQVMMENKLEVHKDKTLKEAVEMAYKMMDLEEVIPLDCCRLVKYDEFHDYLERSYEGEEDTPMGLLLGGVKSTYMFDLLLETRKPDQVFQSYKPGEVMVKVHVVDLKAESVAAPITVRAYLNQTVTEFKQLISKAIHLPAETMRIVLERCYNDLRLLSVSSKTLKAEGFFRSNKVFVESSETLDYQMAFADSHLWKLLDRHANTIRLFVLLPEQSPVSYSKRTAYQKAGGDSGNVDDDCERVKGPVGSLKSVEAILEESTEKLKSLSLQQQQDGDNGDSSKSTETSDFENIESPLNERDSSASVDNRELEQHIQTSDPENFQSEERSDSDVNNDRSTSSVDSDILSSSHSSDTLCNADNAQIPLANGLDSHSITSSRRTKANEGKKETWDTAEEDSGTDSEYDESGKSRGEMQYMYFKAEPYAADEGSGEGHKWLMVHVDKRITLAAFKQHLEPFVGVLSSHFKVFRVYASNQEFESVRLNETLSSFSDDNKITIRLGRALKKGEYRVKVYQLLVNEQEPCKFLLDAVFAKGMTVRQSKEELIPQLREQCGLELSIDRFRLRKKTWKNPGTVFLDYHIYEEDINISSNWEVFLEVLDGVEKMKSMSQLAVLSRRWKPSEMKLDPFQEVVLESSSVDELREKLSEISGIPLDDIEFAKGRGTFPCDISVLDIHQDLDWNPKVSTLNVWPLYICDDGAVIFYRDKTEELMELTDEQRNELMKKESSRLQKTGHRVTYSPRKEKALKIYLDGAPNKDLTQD
UniProt Q8N806: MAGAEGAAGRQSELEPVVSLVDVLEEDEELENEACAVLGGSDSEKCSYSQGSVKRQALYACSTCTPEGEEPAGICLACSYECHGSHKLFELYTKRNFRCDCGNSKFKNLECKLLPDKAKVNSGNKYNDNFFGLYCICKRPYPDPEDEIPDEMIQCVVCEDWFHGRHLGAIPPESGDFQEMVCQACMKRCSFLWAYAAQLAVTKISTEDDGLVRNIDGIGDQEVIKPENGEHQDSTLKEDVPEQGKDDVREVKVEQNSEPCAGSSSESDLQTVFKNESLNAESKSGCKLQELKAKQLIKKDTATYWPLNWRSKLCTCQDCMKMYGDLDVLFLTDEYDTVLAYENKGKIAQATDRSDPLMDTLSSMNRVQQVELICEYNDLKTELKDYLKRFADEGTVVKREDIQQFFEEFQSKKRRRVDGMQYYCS
UniProt Q9Y3C8: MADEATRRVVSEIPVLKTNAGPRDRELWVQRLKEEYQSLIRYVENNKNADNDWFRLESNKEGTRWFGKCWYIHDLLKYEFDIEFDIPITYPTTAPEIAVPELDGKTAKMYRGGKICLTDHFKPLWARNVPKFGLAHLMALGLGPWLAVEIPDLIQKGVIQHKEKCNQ
UniProt P17480: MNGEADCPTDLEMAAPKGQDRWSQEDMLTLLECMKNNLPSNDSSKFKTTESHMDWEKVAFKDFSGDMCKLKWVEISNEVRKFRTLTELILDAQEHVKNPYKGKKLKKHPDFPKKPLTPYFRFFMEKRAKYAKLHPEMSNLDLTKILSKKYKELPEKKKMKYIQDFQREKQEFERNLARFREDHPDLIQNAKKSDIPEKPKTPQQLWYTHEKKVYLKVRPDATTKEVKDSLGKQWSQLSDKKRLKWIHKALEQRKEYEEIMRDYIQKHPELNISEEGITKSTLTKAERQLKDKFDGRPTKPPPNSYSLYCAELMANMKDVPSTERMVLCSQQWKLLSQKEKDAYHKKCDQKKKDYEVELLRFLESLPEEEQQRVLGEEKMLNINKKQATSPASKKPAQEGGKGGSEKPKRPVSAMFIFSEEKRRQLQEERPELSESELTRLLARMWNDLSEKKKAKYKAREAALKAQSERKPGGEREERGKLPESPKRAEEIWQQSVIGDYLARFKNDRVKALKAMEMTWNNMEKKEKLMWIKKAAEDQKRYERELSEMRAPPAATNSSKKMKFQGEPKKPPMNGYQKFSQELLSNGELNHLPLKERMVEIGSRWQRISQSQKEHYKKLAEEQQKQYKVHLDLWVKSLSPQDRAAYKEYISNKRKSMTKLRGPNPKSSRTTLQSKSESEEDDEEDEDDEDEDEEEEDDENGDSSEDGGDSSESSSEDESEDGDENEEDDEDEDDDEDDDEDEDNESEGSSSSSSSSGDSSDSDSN
UniProt Q9HAU5: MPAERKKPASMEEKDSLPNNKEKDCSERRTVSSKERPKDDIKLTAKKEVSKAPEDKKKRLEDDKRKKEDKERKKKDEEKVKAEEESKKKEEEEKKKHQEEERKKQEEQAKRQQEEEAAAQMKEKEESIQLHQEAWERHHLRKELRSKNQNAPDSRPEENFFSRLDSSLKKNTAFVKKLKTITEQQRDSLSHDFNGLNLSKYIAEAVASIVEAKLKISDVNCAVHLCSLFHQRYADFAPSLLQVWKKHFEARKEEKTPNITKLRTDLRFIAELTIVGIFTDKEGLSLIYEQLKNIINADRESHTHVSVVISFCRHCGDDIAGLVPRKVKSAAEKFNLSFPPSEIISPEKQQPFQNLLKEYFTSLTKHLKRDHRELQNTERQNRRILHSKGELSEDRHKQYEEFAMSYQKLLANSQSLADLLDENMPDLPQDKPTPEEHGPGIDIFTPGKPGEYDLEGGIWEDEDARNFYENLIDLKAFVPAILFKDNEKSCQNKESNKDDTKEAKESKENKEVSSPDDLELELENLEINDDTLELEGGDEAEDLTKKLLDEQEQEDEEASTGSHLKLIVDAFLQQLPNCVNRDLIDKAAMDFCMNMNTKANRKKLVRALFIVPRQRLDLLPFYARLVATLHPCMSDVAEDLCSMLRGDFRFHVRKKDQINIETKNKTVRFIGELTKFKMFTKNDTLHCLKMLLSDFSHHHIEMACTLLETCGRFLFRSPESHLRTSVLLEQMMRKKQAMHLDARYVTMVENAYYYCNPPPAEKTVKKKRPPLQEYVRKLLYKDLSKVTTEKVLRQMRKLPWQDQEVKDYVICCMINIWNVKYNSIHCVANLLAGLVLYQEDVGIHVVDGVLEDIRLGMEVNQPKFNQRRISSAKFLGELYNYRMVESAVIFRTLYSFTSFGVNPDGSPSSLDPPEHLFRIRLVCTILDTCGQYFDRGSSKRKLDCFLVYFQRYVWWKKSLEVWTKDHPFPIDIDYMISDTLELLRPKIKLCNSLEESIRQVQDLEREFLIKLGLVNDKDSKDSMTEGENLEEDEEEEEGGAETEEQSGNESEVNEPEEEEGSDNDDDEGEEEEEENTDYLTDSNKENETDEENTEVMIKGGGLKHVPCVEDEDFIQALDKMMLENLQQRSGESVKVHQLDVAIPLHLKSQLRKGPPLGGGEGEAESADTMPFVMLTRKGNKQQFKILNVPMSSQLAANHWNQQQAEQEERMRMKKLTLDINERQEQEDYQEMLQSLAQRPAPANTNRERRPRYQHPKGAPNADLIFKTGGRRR
UniProt Q93009, whole entry, looked up: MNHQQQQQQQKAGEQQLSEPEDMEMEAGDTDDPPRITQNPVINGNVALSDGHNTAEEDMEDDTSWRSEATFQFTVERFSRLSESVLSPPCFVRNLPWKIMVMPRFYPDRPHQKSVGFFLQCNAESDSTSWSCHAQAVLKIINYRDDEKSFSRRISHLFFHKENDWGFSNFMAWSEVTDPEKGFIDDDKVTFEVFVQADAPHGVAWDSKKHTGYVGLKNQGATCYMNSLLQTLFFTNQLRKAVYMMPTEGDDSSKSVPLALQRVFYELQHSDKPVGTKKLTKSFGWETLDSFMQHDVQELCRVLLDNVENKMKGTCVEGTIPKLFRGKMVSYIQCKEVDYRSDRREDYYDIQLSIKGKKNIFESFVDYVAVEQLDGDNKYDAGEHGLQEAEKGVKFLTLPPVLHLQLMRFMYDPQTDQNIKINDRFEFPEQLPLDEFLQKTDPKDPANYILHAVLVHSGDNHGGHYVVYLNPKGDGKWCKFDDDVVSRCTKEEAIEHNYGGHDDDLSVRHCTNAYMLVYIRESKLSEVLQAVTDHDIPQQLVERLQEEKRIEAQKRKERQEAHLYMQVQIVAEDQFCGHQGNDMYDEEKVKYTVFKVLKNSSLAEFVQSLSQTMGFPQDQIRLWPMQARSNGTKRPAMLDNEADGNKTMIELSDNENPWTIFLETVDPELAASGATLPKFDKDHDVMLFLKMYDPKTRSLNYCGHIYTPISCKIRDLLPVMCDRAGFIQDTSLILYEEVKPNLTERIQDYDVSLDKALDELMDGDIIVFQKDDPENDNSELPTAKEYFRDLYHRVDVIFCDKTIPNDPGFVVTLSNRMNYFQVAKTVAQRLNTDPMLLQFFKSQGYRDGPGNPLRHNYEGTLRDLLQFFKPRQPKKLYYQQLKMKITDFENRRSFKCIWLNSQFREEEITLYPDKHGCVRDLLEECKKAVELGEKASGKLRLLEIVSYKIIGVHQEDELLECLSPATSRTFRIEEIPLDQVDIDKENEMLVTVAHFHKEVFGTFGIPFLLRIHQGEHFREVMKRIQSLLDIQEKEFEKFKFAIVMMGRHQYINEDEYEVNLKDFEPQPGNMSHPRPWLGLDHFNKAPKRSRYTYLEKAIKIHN

Compound: CC1Cc2ccccc2N1C(=O)C1CCCN(C1)C(=O)CCl (mixture of isomers) [TRIM25 ligand 11 (diastereomer mixture)]
Test: probe-labelled cysteine peptide fold change vs DMSO (competition) (log2 fold change); higher = less target engagement (more negative = stronger competition)
Conditions: THP-1, incubation time: 4 h
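Note: competitive chemoproteomic profiling in live THP-1 cells with an iodoacetamide desthiobiotin (IA-DTB) probe, comparing probe-labelled peptide intensities in compound-treated cells against DMSO-treated controls.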

| Target | probe-labelled cysteine peptide fold change (10 µM) | probe-labelled cysteine peptide fold change (50 µM) |
| --- | --- | --- |
| USP14_P54578_203_GEQGQYLQQDANECWIQMMR (UniProt P54578) | 0.0111 | 0.0657 |
| USP4_Q13107_464_STLVCPECAK (UniProt Q13107) | 0.00998 | -0.0406 |
| USP47_Q96K76_656_MMDLEEVIPLDCCR (UniProt Q96K76) | -0.0834 | -0.239 |
| UCHL5_Q9Y5K5_88_QVINNACATQAIVSVLLNCTHQDVHLGETLSEFK (UniProt Q9Y5K5) | 0.0243 | -0.0045 |
| UBR7_Q8N806_137_YNDNFFGLYCICK (UniProt Q8N806) | 0.134 | -0.0455 |
| UBR7_Q8N806_155_RPYPDPEDEIPDEMIQCVVCEDWFHGR (UniProt Q8N806) | 0.0185 | -0.0524 |
| UFC1_Q9Y3C8_116_ICLTDHFK (UniProt Q9Y3C8) | -0.127 | -0.0548 |
| UNC45A_Q9H3U1_800_AATECMCNLAMSK (UniProt Q9H3U1) | -0.0369 | -0.147 |
| UBTF_P17480_309_FDGRPTKPPPNSYSLYCAELMANMK (UniProt P17480) | -0.0778 | -0.228 |
| USP40_Q9NVE5_172_LYHGTIVNQIVCK (UniProt Q9NVE5) | -0.217 | -0.0373 |
| UPF2_Q9HAU5_315_HCGDDIAGLVPR (UniProt Q9HAU5) | -0.00461 | 0.00542 |
| USP7_Q93009_334_MVSYIQCK (UniProt Q93009) | -0.0252 | -0.213 |
| USP19_O94966_656+659_LVCPVCAK (UniProt O94966) | 0.00149 | 0.0811 |
| URB1_O60287_316_ELVHNFLMDLCCSLK (UniProt O60287) | 0.00673 | -0.0724 |

Complete entries, quoted from the list. Values in the order: probe-labelled cysteine peptide fold change (10 µM) | probe-labelled cysteine peptide fold change (50 µM)
UBTF_P17480_309_FDGRPTKPPPNSYSLYCAELMANMK (UniProt P17480) is listed as -0.0778 | -0.228
USP4_Q13107_464_STLVCPECAK (UniProt Q13107) is listed as 0.00998 | -0.0406
